Where two headings read alike, the source gives them in different places. Some compounds share one wording; it may come from a single statement. For some assays here: Some peptides are written in HELM: one residue between dots, names in brackets for other building blocks, links after the first $. Where a SMILES comes first, the peptide text is derived from it. Where no end group is shown, it is not given here. The star is where a group is joined. Palmitoyl = CCCCCCCCCCCCCCCC(=O)*
How the values were obtained:
HeLa cells = assay: Confocal laser scanning microscopy and degradation study with PA library and HeLa cells; format: cell-based; conditions: for Aggregate size after 30 min incubation (d0) / Aggregate size after 3 d incubation (d3): aggregates > 10 µm^2, HeLa cell culture
Experimental: In general, the procedure for determine whether a PA is degraded or not, is conducted by confocal laser scanning microscopy of Proteostat stained PAs which are added to Hela cells (2 µg peptide added to 20.000 cells). Microscopy is conducted at day 0 (d0, after 30 min of incubation) and at day 3 (d3, after 72 h of incubation). The number of aggregates >10 µm^2 is counted via 3D object counter in imaged in an area of 1008 µm × 1008 µm.
A PA is considered to be degradable if the number and the size of aggregates are reduced after 3 days. The efficiency is determined by the percentual degradation (aggregate number at d3 / aggregate number at d0). For the number of aggregation three technical replicates were evaluated for each sample. A large deviation represents a nonhomogeneous spatial distribution of aggregates.
Confocal laser scanning microscopy and degradation study with PA library and HeLa cells: Confocal laser scanning microscopy studies were performed for the visualization of the cell-PA interaction. HeLa cells were seeded one day prior to conducting the assay (20,000/well) in an 8-well IBIDI slide. […] The nucleus of the HeLa cells was stained with Hoechst 33342 (NucBlue™, Thermo Fisher Scientific). The peptide solution mixture was transferred to the HeLa cells and incubated for 30 min at 37°C before washing three times with PBS. […] For the evaluation of aggregate degradation, the samples were further incubated at 37°C for 3 d and analyzed without any additional washing step. […] The number of aggregates were determined by counting aggregates larger than the threshold 10 µm^2 in an area of 1008 × 1008 µm and repeated in three technical triplicates.

[1] = peptide made by a vendor (peptide synthesis; Rink Amide AM resin LL (100-200 mesh); OxymaPure, HBTU, N,N'-diisopropylcarbodiimide, DIPEA (listed in materials)); conditions: whole synthesis, LC-MS or HPLC
[2] = general procedure: Fmoc solid-phase peptide synthesis; Rink Amide AM resin LL (100-200 mesh); OxymaPure, HBTU, N,N'-diisopropylcarbodiimide, DIPEA (listed in materials); conditions: whole synthesis

Row | Molecule | Aggregate size after 30 min incubation (d0) (HeLa cells) [µm^2] | Aggregate size after 3 d incubation (d3) (HeLa cells) [µm^2] | formation of µm-sized PA clusters (Proteostat stained, with HeLa cells) (HeLa cells) | also measured
1 | CCCCCCCCCCCCCCCC(=O)N[C@@H](CCCCN)C(=O)N[C@@H](Cc1ccc(O)cc1)C(=O)N[C@H](C(=O)N[C@@H](Cc1c[nH]cn1)C(=O)N[C@@H](CCC(N)=O)C(=O)N[C@@H](CC(N)=O)C(=O)N[C@@H](Cc1ccc(O)cc1)C(=O)N[C@H](C(=O)N[C@@H](CCCCN)C(=O)N[C@@H](C)C(=O)N[C@@H](CC(C)C)C(=O)N[C@@H](C)C(=O)NCC(=O)N[C@@H](CCCCN)C(=O)N[C@@H](CC(C)C)C(=O)N[C@H](C(N)=O)C(C)C)[C@@H](C)O)[C@@H](C)CC [Pat26] (Palmitoyl-KYIHQNYTKALAGKLV-NH2) | 76 | 80 |  | 
2 | CCCCCCCCCCCCCCCC(=O)N[C@@H](CC(N)=O)C(=O)N[C@@H](Cc1ccccc1)C(=O)N[C@@H](Cc1ccc(O)cc1)C(=O)N[C@@H](CC(C)C)C(=O)N[C@@H](CCC(N)=O)C(=O)N[C@H](C(=O)N[C@@H](CC(N)=O)C(=O)N[C@@H](CCCCN)C(=O)N[C@H](C(=O)N[C@@H](CC(N)=O)C(=O)N[C@@H](CCCCN)C(N)=O)[C@@H](C)CC)C(C)C [Pat27] (Palmitoyl-NFYLQVNKINK-NH2) | 153 | 87 |  | 
3 | CCCCCCCCCCCCCCCC(=O)N[C@@H](C)C(=O)N[C@@H](CCCCN)C(=O)N[C@@H](C)C(=O)N[C@H](C(=O)NCC(=O)N[C@@H](CCCCN)C(N)=O)C(C)C [Pat31, C16-AKAVGK-NH2] (Palmitoyl-AKAVGK-NH2) | 104 | 38 | formation of µm-sized PA clusters | 
4 | CCCCCCCCCCCCCCCC(=O)N[C@@H](CCCCN)C(=O)N[C@H](C(=O)N[C@H](C(=O)N[C@@H](CO)C(=O)N[C@@H](Cc1ccccc1)C(=O)N[C@@H](CCCCN)C(N)=O)[C@@H](C)CC)[C@@H](C)CC [Pat32, C16-KIISFK-NH2] (Palmitoyl-KIISFK-NH2) | 56 | 49 |  | 
5 | C16-disulfide-CVVVAAAKKK-NH2 (C16-disulfide N-terminus; C-terminal amide; source 1..10: note = Peptide Amphiphile Pat2; MOD_RES 10: note = lysine amide; note = AMIDATION; MOD_RES 1: note = HEX…ULFID; note = hexadecanyl-S-S-cysteine) |  |  | no formation of µm-sized PA clusters | formation of µm-sized PA clusters (Proteostat stained, with HeLa cells) (HeLa cells; listed as C16-disulfide-CVVVAAAKKK-NH2): not forming large (>10 µm^2) aggregates; formation of µm-sized PA clusters (Proteostat stained, with HeLa cells) (HeLa cells; listed as C16-disulfide-CVWAAAKKK): not forming large (>10 µm^2) aggregates
6 | C16-ester-SVVVAAAKKK-NH2 (C16-ester N-terminus; C-terminal amide; source 1..10: note = Peptide Amphiphile Pat1; MOD_RES 10: note = lysine amide; note = AMIDATION; LIPID 1: note = O-palmitoyl serine; note = …) |  |  | formation of µm-sized PA clusters | 
7 | C16-thioester-CVVVAAAKKK-NH2 (C16-thioester N-terminus; C-terminal amide; source 1..10: note = Peptide Amphiphile Pat3; MOD_RES 10: note = lysine amide; note = AMIDATION; LIPID 1: note = …; note = S-palmitoyl-cysteine) | 22 | 10 | formation of µm-sized PA clusters | 
8 | NFYLQVNKINK-NH2 [Pat46] | 61 | 44 |  | 
9 | Nap-VVVAAAKKK-NH2 (N-terminal naphthyl; C-terminal amide; source 1..9: note = Peptide Amphiphile Pat13; MOD_RES 9: note = AMIDATION; note = lysine amide; MOD_RES 1: note = 2-naphthylmethyl; note = N-2-naphthylmethyl valine) |  |  | no formation of µm-sized PA clusters | 
10 | PEPTIDE1{Q.C.K.I.K.Q.I.I.N.M.W.Q}$$$$V2.0 |  |  |  | purity (crude or final not stated) [1]: >95%
11 | PEPTIDE1{[cap].F.Q.F.K.F.K.C.[am]}$$$$V2.0 |  |  |  | crude yield [2]: 25%
12 | PEPTIDE1{[cap].V.V.V.A.A.A.E.E.E.[am]}$$$$V2.0 |  |  |  | crude yield [2]: 46%
13 | PEPTIDE1{[cap].V.V.V.A.A.A.K.K.K.[am]}$$$$V2.0 |  |  |  | crude yield [2]: 34%
